# Measurements reported in PubChem BioAssay AID1259308 (NCATS, 2017).
# Aim: 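Candidate targets for better recombinant protein yield in mammalian cells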 (primary screen)
# Cell system: human HEK293 embryonic kidney cells stably expressing firefly luciferase (HEK-CMV-Luc2-Hygro)
# Knock-down reagent: single siRNA against human genes, 0.8 pmol siRNA per well
# Timing: 72 h
# Measurement: 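Reporter luminescence and viable-cell signal on separate replicate plates, given as percent of non-targeting control and median/MAD z-scores, plus per-cell luciferase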
# Scale: total luciferase, z-score: higher = more reporter protein produced
# Active means: 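Active when the median/MAD z-score for overall luciferase is greater than 3; a gene was taken forward for validation with new siRNAs if at least two of its three siRNAs passed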
# Calls: active = raised luciferase; inactive = no rise
# Shown is a random part of about 59,000 deposited reagents. Of all reagents, about 1,510 (2.6%) were called active. 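Calls use total luciferase alone and ignore viability, so some active siRNAs may act by altering cell number.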 A number with no mark means an inactive call. Reagents against one gene are numbered here. Further read-outs or replicates are left out here. No sequences are given here.
gene,siRNA no.,"total luciferase, z-score"
PGF (placental growth factor),1,0.593
PGF (placental growth factor),2,0.147
PGF (placental growth factor),3,1.81
DUXAP10 (double homeobox A pseudogene 10),1,3.4 (active)
DUXAP10 (double homeobox A pseudogene 10),2,0.207
DUXAP10 (double homeobox A pseudogene 10),3,0.767
TMEM147 (transmembrane protein 147),1,2.74
TMEM147 (transmembrane protein 147),2,-0.932
TMEM147 (transmembrane protein 147),3,-1.15
IARS2P1 (IARS2 pseudogene 1),1,0.614
IARS2P1 (IARS2 pseudogene 1),2,2.03
IARS2P1 (IARS2 pseudogene 1),3,-1.02
TVP23A (trans-golgi network vesicle protein 23 homolog A),1,-0.849
TVP23A (trans-golgi network vesicle protein 23 homolog A),2,0.744
TVP23A (trans-golgi network vesicle protein 23 homolog A),3,0.0852
RCC1L (RCC1 like),1,-1.13
RCC1L (RCC1 like),2,-0.268
RCC1L (RCC1 like),3,-0.553
RCC1L (RCC1 like),4,0.337
RCC1L (RCC1 like),5,-0.529
RCC1L (RCC1 like),6,0.0357
DPY19L2P2 (DPY19L2 pseudogene 2),1,0.193
DPY19L2P2 (DPY19L2 pseudogene 2),2,-0.529
DPY19L2P2 (DPY19L2 pseudogene 2),3,1.6
CCDC25 (coiled-coil domain containing 25),1,1.31
CCDC25 (coiled-coil domain containing 25),2,-0.871
CCDC25 (coiled-coil domain containing 25),3,-0.712
GLRA3 (glycine receptor alpha 3),1,0.175
GLRA3 (glycine receptor alpha 3),2,-0.621
GLRA3 (glycine receptor alpha 3),3,-0.999
OLFM4 (olfactomedin 4),1,-0.615
OLFM4 (olfactomedin 4),2,2.86
OLFM4 (olfactomedin 4),3,-0.873
GALNTL6 (polypeptide N-acetylgalactosaminyltransferase like 6),1,-0.656
GALNTL6 (polypeptide N-acetylgalactosaminyltransferase like 6),2,0.379
GALNTL6 (polypeptide N-acetylgalactosaminyltransferase like 6),3,0.445
FRRS1 (ferric chelate reductase 1),1,0.414
FRRS1 (ferric chelate reductase 1),2,-0.283
FRRS1 (ferric chelate reductase 1),3,3.42 (active)
